Source: patent US20260191924A1, “METHODS AND COMPOSITIONS FOR TREATING VIRAL INFECTIONS” (DST Pharma, Inc., priority 2020, published 2026)
At least one structure is not confirmed: it was looked up by name or label, or the drawing left a doubt.

Tested on: FCV F9
Test: Effect of rutin on FCV F9 infection of CRFK cells
Assay type: cell-based, feline calicivirus (cat kidney CRFK cells)

## C[C@@H]1O[C@@H](OC[C@H]2O[C@@H](Oc3c(-c4ccc(O)c(O)c4)oc4cc(O)cc(O)c4c3=O)[C@H](O)[C@@H](O)[C@@H]2O)[C@H](O)[C@H](O)[C@H]1O [rutin, 3, 3′, 4′, 5,7-pentahydroxyflavone-3-rhamnoglucoside]
0.1% rutin vs 0.1% quercetin
  inhibition effect compared with quercetin: weaker compare to quercetin
0.1% rutin, added before, after, or at same time as virus (FIG. 5)
  inhibition of FCV infection: inhibited
